To fix the notation:
B1: antibody 8C7 (antibody, human IgG1, V domains shown)
VH: EVQLQQSGPELVKPGASVKVSCKASGYAFASYNMNWVKQSHGKSLDWIGYIDPYNGGSSYNLTFKGKATLTVDKSSTTAYMHLNSLTSEDSAVYYCARGYGNYKAWFAYWGQGTLVTVSA
VL: SIVMTPTPKFLLVSAGDRVTITCKASQSVSNDVAWYQQKPGQSPKLLIYYASTRYTGVPDRFTGSGYGTDFTFTISTVQAEDLAVYFCQQDYSSLTFGAGTKLELKR
B2: antibody 11E1 (antibody, human IgG1, V domains shown)
VH: B1 VH with V2I, A30T, N35Y, D46E, S58T, L62Q, T63K, T77S
VL: DAVMTQTPKFLLVSAGDRVTITCKASQSVTNDVAWYQQKPGQSPKLLIYYASNRYTGVPDRFTGSGYGTDFTFTISTVQAEDLAVYFCQQDYSSLTFGAGTKLELK
B3: antibody 3C12 (antibody, human IgG1, V domains shown)
VH: B1 VH with E1Q, V2I
VL: B1 VL with S1D, I2V, P6Q
B4: antibody 6E1 (antibody, human IgG1, V domains shown)
VH: B1 VH with V2F, A30T, N35Y, S44R, D46E, L62Q, T63K, T77S, S85N, G101N
VL: B2 VL with D1S, A2I, V78M

Numbering of substitutions follows the chain as printed. Results are given in words; binding and its absence hold for the method and conditions named. Binding can be weak; no strength is given.

One assay concerns the target human CD73 expressed at the cell surface (human). Nature of the assay: flow cytometry titration on MDA-MB-231 cells (endogenous human CD73), PE secondary, median of fluorescence.
As to B1, the binding entry is “binds”.
On the same count and under the same terms, the same measure for B2: “binds”.
Still for that read-out and setting: the same measure for B3: “binds”; for B4: “binds”.

The target is the same in another assay. Nature of the assay: flow cytometry on MDA-MB-231 cells with or without 200 µM APCP.
With B1, the binding entry is “binds”.
The same measure, in the same setting: the entry for B2 is “binds”; for B3 it is “binds”.
As for B4, the binding result is reported as “binds”.

The next assay has the same target. Nature of the assay: flow cytometry titration on cells expressing wild type human CD73. Background: A flow cytometer gives signals particle by particle.
Regarding B3, the binding entry is recorded as “binds”.

The next assay shares this target. Nature of the assay: flow cytometry on MDA-MB-231 cells with or without APCP.
As to B1, the binding entry is on record as “binds”.
Regarding B2, the binding entry is listed as “binds”.
For B3, the binding result is “binds”.
On the same count and under the same terms, the same measure for B4: “binds”.

For the next assay the target is unchanged. Nature of the assay: flow cytometry titration on human CD73-expressing recombinant host cells.
For the molecule B1, the binding result was “binds”.
Still for that read-out and setting: the same measure for B2: “binds”; for B3: “binds”; for B4: “binds”.

The target is the same in a further assay. Nature of the assay: flow cytometry titration on human CD73-expressing recombinant host cells, PE secondary, median of fluorescence.
With B1, the binding entry is reported as “binds”.
As to B2, the binding result is “binds”.
The same measure, in the same setting: the same measure for B3: “binds”; for B4: “binds”.

For another assay the target is unchanged. Nature of the assay: flow cytometry titration on MDA-MB-231 cells (endogenous CD73).
With B1, the binding result is “binds”.
Take B2: the binding result was “binds”.
The same measure, in the same setting: the entry for B3 is “binds”; for B4 it is “binds”.

Another assay shares this target. Nature of the assay: flow cytometry titration on HEK-293T cells transfected with wild type human CD73, mean of fluorescence.
In the case of B3, the binding result is given as “binds”.

The values above are taken from patent publication US20180237536A1.
